Results are given in words; binding and its absence hold for the method and conditions named. Binding seen in cells or lysates may run through a third protein. Binding calls can cover weak binding; strength is not graded here. Tags and fused reporters may be left off the sequences shown.
Molecular target: T1, recombinant human full-length cystatin F with his-tag (human) (UniProt O76096)
T1 sequence: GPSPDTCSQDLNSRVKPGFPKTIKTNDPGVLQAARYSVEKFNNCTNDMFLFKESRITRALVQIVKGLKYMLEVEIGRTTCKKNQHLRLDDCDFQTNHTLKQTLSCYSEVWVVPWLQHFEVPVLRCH
Experiment: co-IP; TALL-104 cells (50 x 10^6) incubated 4 h with 100 nM his-tagged recombinant full-length cystatin F, washed, lysed (50 mM Tris-HCl pH 7.4, 100 mM NaCl, 0.25% Triton X, protease inhibitors); anti-his-tag antibody overnight at 4 °C, Dynabeads protein A; western blot with anti-cathepsin C; untreated cells as control; only the target purified

Amino acid sequences for entries named in this document (tags omitted). A change or cut given only in a name is not applied to a line headed by its entry.
UniProt P53634: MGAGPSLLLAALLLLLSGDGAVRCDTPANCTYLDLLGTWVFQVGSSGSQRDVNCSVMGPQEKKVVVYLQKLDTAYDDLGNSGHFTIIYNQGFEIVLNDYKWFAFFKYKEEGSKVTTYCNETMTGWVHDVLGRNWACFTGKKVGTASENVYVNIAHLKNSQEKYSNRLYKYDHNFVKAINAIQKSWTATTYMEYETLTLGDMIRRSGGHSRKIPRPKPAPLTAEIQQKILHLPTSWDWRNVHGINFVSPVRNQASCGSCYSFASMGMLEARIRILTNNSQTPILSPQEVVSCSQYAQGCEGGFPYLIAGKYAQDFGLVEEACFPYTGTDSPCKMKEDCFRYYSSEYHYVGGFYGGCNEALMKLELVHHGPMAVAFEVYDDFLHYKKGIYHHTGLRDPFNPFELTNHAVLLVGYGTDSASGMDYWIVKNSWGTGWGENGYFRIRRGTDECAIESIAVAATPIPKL

In the case of “cathepsin C (from UniProt P53634) (enzyme)”, the binding was “binds”.

From paper PMC7762138
